In PubChem BioAssay AID463205 (Broad Institute, 2010):
About 20 (0.8%) of roughly 2,400 compounds were called active.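 The calls were made as follows: active = AC50 no more than ten times the highest tested concentration, or full inhibition at every dose giving a flat fit (cut at about 30 µM in these data); inconclusive = flat fit with activity between 30% and 70%, or poor-quality invalid fit; inactive = AC50 more than ten times the top tested dose.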 The list shows a part of the results.

assay: luciferase-based ADP detection interference – biochemical, luminescence, cell-free, homogeneous, artefact control for GSK-3a inhibitor project, dose response (AID 463205); conditions: Cell-free ADP-Glo detection reagents, 5 uM ADP;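 also: kinase-free counter-screen against the ADP-Glo detection reagents only; potency is for inhibitors that reduce the luminescence signal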

AC50, inactive:
Oc1ccc2oc3c(c2c1/C=N/n1cnnc1)CCCC3 > 30 µM, Cc1ccc(Nc2nc(N)c([N+](=O)[O-])c(NCc3ccco3)n2)cc1C > 30 µM, COc1ccc(N=c2oc3c(OC)cccc3cc2C(=O)NCc2ccco2)cc1OC > 30 µM, O=C(COC(=O)c1cccc(S(=O)(=O)N2CCOCC2)c1)Nc1ncc(Cl)cc1Cl > 30 µM, CC(C)CCNC(=O)CN(Cc1cccs1)C(=O)CCC(=O)Nc1nccs1 > 30 µM, CCN(C(=O)CN1CCCCC1)c1c(N)n(Cc2ccccc2)c(=O)[nH]c1=O > 30 µM, NCCNc1cc(N2CCCC2)ccc1[N+](=O)[O-] > 30 µM, Nc1nonc1-n1nnc(C(=O)N/N=C/c2ccccc2Cl)c1-c1ccccc1 > 30 µM, CCOC(=O)c1c(NC(=O)CN2C(=O)NC3(CCCCC3C)C2=O)sc(C)c1CC (centres undefined) > 30 µM, Cc1cc(O)c2c(-c3ccccc3)cc(=O)oc2c1 > 30 µM, CCOC(=O)c1[nH]c2c(c1-c1ccccc1)C(=O)CC(c1ccc(Cl)cc1)C2 (centres undefined) > 30 µM, CC1CCN(Cc2c(C(=O)N/N=C/c3cccc(Cl)c3)nnn2-c2nonc2N)CC1 > 30 µM, CC(=NCCCn1ccnc1)c1c(O)n(Cc2ccccc2)c(=O)[nH]c1=O > 30 µM, Clc1cncc(Cl)c1N/N=C/c1ccncc1 > 30 µM, COC(=O)C1CSc2[nH]c(=O)sc2C1c1ccc(O)c(OC)c1 (centres undefined) > 30 µM, O=C(CSc1nc2ccccc2o1)Nc1nc2ccc(Br)cc2s1 > 30 µM, COc1ccc(-c2cc(NCc3ccccn3)n3ncnc3n2)cc1 > 30 µM, Clc1ccc(/C=N/Nc2ncnc3ccccc23)cc1Cl > 30 µM, CC(=O)Nc1ccc(C2(c3ccc(NC(C)=O)cc3)NC(=O)c3ccccc32)cc1 > 30 µM, Oc1ccc(-c2nc3ncccn3c2Nc2ccc3c(c2)OCO3)cc1 > 30 µM, O=C(NC1=NCCS1)c1ccc(Cl)cc1 > 30 µM, NC(=O)c1sc2nc3c(c(-c4ccco4)c2c1N)CCCC3 > 30 µM, COc1ccc2c(c1)C(SCC(=O)NCc1ccccc1)CC(C)(C)O2 (centres undefined) > 30 µM, NC(=O)[C@@H]1CCCNc2c(I)cc([N+](=O)[O-])cc2C(=O)N[C@@H](CCCN=C(N)N)C(=O)N[C@@H](CCCN=C(N)N)C(=O)N1 > 30 µM
